Reference: PubChem BioAssay AID1224828 (NIAID, 2016)

- Purpose: 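Find genes required for NF-kappaB p65 moving into the nucleus after LPS in mouse macrophages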 (primary screen)
- Cells: mouse RAW264.7 G9 macrophage reporter cells (GFP-p65, Tnf promoter-mCherry)
- Knock-down reagent: siRNA pool against mouse genes, 100 nM
- Time to read-out: 2 days siRNA transfection, then 40 min LPS before fixation
- Treatment: LPS (Salmonella minnesota R595) at 10 ng/ml
- Measurement: 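Imaged p65 nuclear translocation ratio, normalised to the plate median, converted to robust z-scores and averaged across two replicates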
- Reading the numbers: p65 translocation robust z-score: higher = more nuclear NF-kappaB p65 after LPS than the plate median; nuclear/cytoplasmic p65 ratio: higher = more nuclear NF-kappaB p65
- Hit rule: 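Called active when z exceeds 3.3 or falls under -1.56 (median of Tlr4 controls), giving activity score of at least 50; no calls for control wells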
- Calls: active = hit (p65 shift raised or lowered); inactive = no clear change
Shown is a random part of about 17,000 reagents tested. 762 of all reagents (4.5%) count as active. 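Active calls include both raised and lowered p65 entry, mostly lowered; wells with fewer than 50 cells lack a z-score.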 The raw values are shown without normalisation. Entries without a mark were called inactive.

{"gene knocked down": "Zfp36l1 (zinc finger protein 36, C3H type-like 1)", "p65 translocation robust z-score": 0.52, "nuclear/cytoplasmic p65 ratio, rep 1": 1.61, "nuclear/cytoplasmic p65 ratio, rep 2": 1.62, "low cell count flag": "enough cells to score"}
{"gene knocked down": "Fam167a (family with sequence similarity 167, member A)", "p65 translocation robust z-score": -0.09, "nuclear/cytoplasmic p65 ratio, rep 1": 1.4, "nuclear/cytoplasmic p65 ratio, rep 2": 1.48, "low cell count flag": "enough cells to score"}
{"gene knocked down": "Trnt1 (tRNA nucleotidyl transferase, CCA-adding, 1)", "p65 translocation robust z-score": -1.02, "nuclear/cytoplasmic p65 ratio, rep 1": 1.5, "nuclear/cytoplasmic p65 ratio, rep 2": 1.23, "low cell count flag": "enough cells to score"}
{"gene knocked down": "Abcd4 (ATP-binding cassette, sub-family D member 4)", "p65 translocation robust z-score": 0.94, "nuclear/cytoplasmic p65 ratio, rep 1": 1.47, "nuclear/cytoplasmic p65 ratio, rep 2": 1.85, "low cell count flag": "enough cells to score"}
{"gene knocked down": "Lamp2 (lysosomal-associated membrane protein 2)", "p65 translocation robust z-score": 1.45, "nuclear/cytoplasmic p65 ratio, rep 1": 1.69, "nuclear/cytoplasmic p65 ratio, rep 2": 1.55, "low cell count flag": "enough cells to score"}
{"gene knocked down": "Khdc1a (KH domain containing 1A)", "p65 translocation robust z-score": -1.12, "nuclear/cytoplasmic p65 ratio, rep 1": 1.37, "nuclear/cytoplasmic p65 ratio, rep 2": 1.73, "low cell count flag": "enough cells to score"}
{"gene knocked down": "Sox9 (SRY (sex determining region Y)-box 9)", "nuclear/cytoplasmic p65 ratio, rep 1": 1.27, "nuclear/cytoplasmic p65 ratio, rep 2": 1.25, "low cell count flag": "fewer than 50 cells per well; well left out of scoring"}
{"gene knocked down": "Hes5 (hes family bHLH transcription factor 5)", "p65 translocation robust z-score": 2.17, "nuclear/cytoplasmic p65 ratio, rep 1": 1.99, "nuclear/cytoplasmic p65 ratio, rep 2": 1.87, "low cell count flag": "enough cells to score"}
{"gene knocked down": "Maml3 (mastermind like transcriptional coactivator 3)", "p65 translocation robust z-score": -1.12, "nuclear/cytoplasmic p65 ratio, rep 1": 1.22, "nuclear/cytoplasmic p65 ratio, rep 2": 1.43, "low cell count flag": "enough cells to score"}
{"gene knocked down": "Cdkal1 (CDK5 regulatory subunit associated protein 1-like 1)", "p65 translocation robust z-score": 0.72, "nuclear/cytoplasmic p65 ratio, rep 1": 1.54, "nuclear/cytoplasmic p65 ratio, rep 2": 2.08, "low cell count flag": "enough cells to score"}
{"gene knocked down": "Bpifc (BPI fold containing family C)", "p65 translocation robust z-score": 0.41, "nuclear/cytoplasmic p65 ratio, rep 1": 1.42, "nuclear/cytoplasmic p65 ratio, rep 2": 1.65, "low cell count flag": "enough cells to score"}
{"gene knocked down": "Gpc4 (glypican 4)", "p65 translocation robust z-score": -0.62, "nuclear/cytoplasmic p65 ratio, rep 1": 1.55, "nuclear/cytoplasmic p65 ratio, rep 2": 1.47, "low cell count flag": "enough cells to score"}
{"gene knocked down": "Usp20 (ubiquitin specific peptidase 20)", "p65 translocation robust z-score": -0.04, "nuclear/cytoplasmic p65 ratio, rep 1": 1.45, "nuclear/cytoplasmic p65 ratio, rep 2": 1.55, "low cell count flag": "enough cells to score"}
{"gene knocked down": "Cidec (cell death-inducing DFFA-like effector c)", "p65 translocation robust z-score": 0.82, "nuclear/cytoplasmic p65 ratio, rep 1": 1.66, "nuclear/cytoplasmic p65 ratio, rep 2": 1.63, "low cell count flag": "enough cells to score"}

2 entries from above, limited to “nuclear/cytoplasmic p65 ratio, rep 2”.
Khdc1a (KH domain containing 1A)	1.73
Sox9 (SRY (sex determining region Y)-box 9)	1.25
